Among all 330,000 compounds or so, about 7,700 (2.3%) were called active. Inconclusive results, whose numbers are uncertain, are shown with a selection of clear calls. Calls follow the shape of the dose curve; as a rule, active = well fitted inhibition curve with a large enough effect; inconclusive = small, poorly fitted or top-dose-only effect, or effect the other way; inactive = flat fitted curve, though single readings scatter. Potencies of inconclusive entries are doubtful fits and often do not repeat.
Assay: qHTS screen for small molecules that inhibit ELG1-dependent DNA repair in human embryonic kidney (HEK293T) cells expressing luciferase-tagged ELG1; also: nearly all actives have a fitted effect of over 55% in size
Settings: HEK293T ELG1-luciferase reporter, luminescence, 16 h, DNA damage induced by 5-fluorouridine; activity change, negative = inhibition: at 46.1 µM (top of the series)
Outline: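 5-Fluorouridine DNA damage + compound/DMSO, 2,000 cells/well, 16 h, 37 °C/5% CO2. ONE-Glo, 30 min RT, luminescence. Readout = decrease in reporter signal.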
% is scaled to controls: 0 for no effect and ±100 for the full control effect; potency is read from the fitted curve at half-maximal effect.

Structure (SMILES)	activity change, negative = inhibition	Potency
CCOC(=O)c1c(S(=O)(=O)Nc2ccc(F)cc2C)c(C)n(C)c1C	inactive: 4.61%	
CCCN1CCN(CCCNC(=O)c2cc3c(s2)-c2c(C)cccc2OC3)CC1	inactive: 5.91%	
O=C1CCN(Cc2ccccc2)S(=O)(=O)c2c(F)cc(F)cc21	inactive: -0.271%	
COc1ccc(-c2nc3c(c(=O)[nH]c(=O)n3Cc3ccccc3)n2Cc2ccccc2)cc1		active: 8.2 µM
O=C(CC(=O)c1ccccc1)Nc1ccc(Cl)cc1		inconclusive: 20.6 µM [activator, single point]
COc1cccc(N/C(SCc2cccc([N+](=O)[O-])c2)=C(/C#N)C(N)=O)c1		inconclusive: 18.3 µM [inhibitor, single point]
CC(=O)N1CCCc2cc(S(=O)(=O)Nc3ccc4c(c3)OCO4)ccc21	inactive: 9.27%	
Cc1ccccc1OCCC(=O)Nc1ccc(Cl)cc1F	inactive: -4.08%	
C=C(C)C1CC=C(C)/C(=N/NC(=O)c2ccccc2[N+](=O)[O-])C1 (stereo not drawn)		inconclusive: 23.1 µM [inhibitor, single point]
Cc1ccc(S(=O)(=O)N2CCN(CC(=O)NC3CCCc4ccccc43)CC2)cc1C (stereo not drawn)		inconclusive: 18.4 µM [inhibitor, single point]
COc1ccc(C2CC(=O)c3cnc(NC(=O)c4ccccc4)nc3C2)c(OC)c1 (stereo not drawn)		inconclusive: 18.4 µM [inhibitor, single point]
Oc1ccccc1-c1nc(NC2CCCC2)c2ccccc2n1		inconclusive: 29.1 µM [inhibitor, single point]
COc1ccc(Cc2nnc(NC(=O)C3CC(=O)N(c4ccccc4C)C3)s2)cc1OC (stereo not drawn)		inconclusive: 29.1 µM [inhibitor, single point]
Nc1c(C(=O)NC2CCCC2)c2nc3ccccc3nc2n1N	inactive: 0.0859%	
O=C(CCNC(=O)c1ccccc1Cl)Nc1nc2ccccc2s1		inconclusive: 20.6 µM [activator, partial curve]
Cc1cc(C)nc(Nc2n[nH]c(COc3ccc(Cl)cc3)n2)n1	inactive: 9.65%	
CC(=O)Oc1ccc(C(=O)Nc2ccc(C3(C#N)CCCC3)cc2)cc1		inconclusive: 2.06 µM [activator, partial curve, poor fit]
O=C(C1CCCCN1S(=O)(=O)c1ccccc1)N1CCCCC1 (stereo not drawn)	inactive: 3.75%	
CCOC(=O)C1C(=O)C=C(c2cccs2)CC1c1ccccc1 (stereo not drawn)		inconclusive: 20.6 µM [inhibitor, partial curve]
CP(C)(=O)CCP(=O)(c1ccccc1)c1ccccc1	inactive: -2.26%	
CCC(=O)NC(=S)Nc1ccc2oc(-c3ccc(OC)cc3)nc2c1		inconclusive: 10.3 µM [activator, partial curve]
O=C(CCc1nc2ccccc2c(=O)[nH]1)NCc1ccco1	inactive: 2.51%	
O=[N+]([O-])c1ccc(-c2cnc[nH]2)cc1		inconclusive: 29.1 µM [activator, single point]
S=C(Nc1ccc2c(c1)OCCO2)Nc1ccc2c(c1)OCO2		inconclusive: 20.6 µM [activator, partial curve]

Structure (SMILES)	activity change, negative = inhibition	Potency
O=C(NC1CCCc2ccccc21)c1cncc(Br)c1 (stereo not drawn)		inconclusive: 29.1 µM [inhibitor, single point]
Cc1ccc(F)cc1S(=O)(=O)Nc1cccc(C(=O)N2CCCC(C(N)=O)C2)c1 (stereo not drawn)		inconclusive: 6.51 µM [activator, partial curve, poor fit]
O=C(CCCNC(=O)c1ccc(Cl)cc1)Nc1ccccc1F	inactive: 11%	
CN1/C(=C\C(=O)COC(=O)c2ccc([N+](=O)[O-])o2)C(C)(C)c2ccccc21	inactive: 0.853%	
CC(C)OCCCNC(=O)c1cccc2c1C(=O)c1ccc(Cl)cc1S2(=O)=O	inactive: -1.86%	
NC(=S)N/N=C/c1ccc(OC(=O)c2cccnc2)cc1	inactive: 12.3%	
CC12CCC(=O)N1C(C(=O)Nc1nc3ccc(F)cc3s1)CS2 (stereo not drawn)		inconclusive: 23.1 µM [activator, single point]
COc1ccccc1C(=O)NC(CCSC)C(=O)Nc1ccc(C)c(S(=O)(=O)N2CCOCC2)c1 (stereo not drawn)		inconclusive: 7.3 µM [inhibitor, single point]
COCC(=O)n1nc(-c2ccc(Cl)cc2)nc1NCc1ccc(F)cc1		inconclusive: 23.1 µM [activator, partial curve]
Cc1nnc2c(NCCc3ccccc3)nc3ccccc3n12		inconclusive: 13 µM [activator, partial curve]
CCC(NC(=O)NNC(N)=S)(C(F)(F)F)C(F)(F)F	inactive: -1.95%	
CCSc1nc2c(cnn2-c2ccccc2)c(=O)n1N		inconclusive: 6.51 µM [activator, partial curve]
O=C(C1=C[C@H](c2ccc(C(F)(F)F)cc2)C[C@H](OCCCCO)O1)N1CCN(Cc2ccc3c(c2)OCO3)CC1	inactive: -37.5%	
CCOC(=O)c1c(C)[nH]c(C(=O)CSc2nc3ccccc3o2)c1C	inactive: 13%	
COCCNC(=S)N/N=C/c1c(C)[nH]c2ccccc12		inconclusive: 8.2 µM [inhibitor, partial curve, poor fit]
CCN1C(=O)/C(=C\N(C(C)=O)c2ccccc2)OC1=S		inconclusive: 16.4 µM [activator, single point]
CCN(CCCNC(=O)CCc1nc(-c2ccc(C)cc2)no1)c1cccc(C)c1	inactive: -19.7%	
COc1ccc(/C=N/N=C(\N)c2nonc2N)cc1OC		inconclusive: 18.3 µM [activator, partial curve]
COC(CNC(=O)c1ccc(N2CCCC2=O)cc1)OC		inconclusive: 20.6 µM [activator, single point]
O=C1CCN(C(=S)NCCc2ccccc2)CC1		inconclusive: 29.1 µM [activator, single point]
Cc1ccc(C(=O)CN2C(=O)NC3(CCOc4ccccc43)C2=O)s1 (stereo not drawn)	inactive: 17.1%	
Cc1nnc(N2CCC(C(=O)NC3CCC(C)CC3)CC2)c2nn(-c3ccc(Cl)cc3)c(C)c12 (stereo not drawn)	inactive: 11.5%	
O=C(COC(=O)C1CC1)NCc1ccccc1Cl		inconclusive: 23.1 µM [activator, single point]
CCN(CC(=O)Nc1ccc(NC(C)=O)cc1)C(=O)CSc1ncnc2sc(C)c(C)c12		inconclusive: 35.5 µM [inhibitor, single point]

An excerpt from above in order of count of non-hydrogen atoms, largest number first.
Structure (SMILES)	activity change, negative = inhibition	Potency
COc1ccccc1C(=O)NC(CCSC)C(=O)Nc1ccc(C)c(S(=O)(=O)N2CCOCC2)c1 (stereo not drawn)		inconclusive: 7.3 µM [inhibitor, single point]
CCN(CCCNC(=O)CCc1nc(-c2ccc(C)cc2)no1)c1cccc(C)c1	inactive: -19.7%	
Cc1ccc(F)cc1S(=O)(=O)Nc1cccc(C(=O)N2CCCC(C(N)=O)C2)c1 (stereo not drawn)		inconclusive: 6.51 µM [activator, partial curve, poor fit]
Cc1ccc(C(=O)CN2C(=O)NC3(CCOc4ccccc43)C2=O)s1 (stereo not drawn)	inactive: 17.1%	
O=C(CCCNC(=O)c1ccc(Cl)cc1)Nc1ccccc1F	inactive: 11%	
COC(CNC(=O)c1ccc(N2CCCC2=O)cc1)OC		inconclusive: 20.6 µM [activator, single point]
CCN1C(=O)/C(=C\N(C(C)=O)c2ccccc2)OC1=S		inconclusive: 16.4 µM [activator, single point]
O=C1CCN(C(=S)NCCc2ccccc2)CC1		inconclusive: 29.1 µM [activator, single point]
